Publication PMC7715031
These are yes or no findings as the source states them, for the method shown. For some of these results: In cells and extracts the contact can be indirect. Some entries that bind do so weakly or less than the wild type.

Amino acid sequences for entries named in this document (tags omitted). Residues count along the entry.
UniProt Q8TDQ0, residues 22-124: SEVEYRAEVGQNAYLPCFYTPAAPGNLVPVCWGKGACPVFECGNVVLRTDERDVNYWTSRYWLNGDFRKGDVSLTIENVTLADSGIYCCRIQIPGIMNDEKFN
UniProt Q9H7M9, residues 33-311: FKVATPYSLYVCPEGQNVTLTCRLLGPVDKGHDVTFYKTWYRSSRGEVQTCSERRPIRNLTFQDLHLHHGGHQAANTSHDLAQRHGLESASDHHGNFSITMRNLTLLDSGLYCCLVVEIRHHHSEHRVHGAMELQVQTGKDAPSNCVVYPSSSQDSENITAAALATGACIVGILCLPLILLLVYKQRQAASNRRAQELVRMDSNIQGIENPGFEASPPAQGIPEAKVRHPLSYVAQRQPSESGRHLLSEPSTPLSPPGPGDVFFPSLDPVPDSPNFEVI

Key:
[1] = molecular target: human Ig-like V-type domain of Tim-3 (amino acid residues 22-124) (human) (UniProt Q8TDQ0); experiment: synchrotron radiation circular dichroism (SRCD) spectroscopy; equimolar mixture of VISTA-Fc (Fc spectra subtracted), galectin-9 and Tim-3; observed spectrum compared with the simulated spectrum; both purified
[2] = molecular target: human Ig-like V-type domain of Tim-3 (amino acid residues 22-124) (human) (UniProt Q8TDQ0); experiment: ELISA; recombinant Tim-3 or VISTA immobilised on the ELISA plate, exposed to galectin-9 for 2 h; galectin-9 detected with ELISA detection antibody; with or without pre-incubation with the corresponding neutralizing antibody; both purified
[3] = molecular target: V-domain Ig-containing suppressor of T cell activation (VISTA), from Jurkat T cells (human (endogenous in Jurkat T cells)) (UniProt Q9H7M9); experiment: ELISA; VISTA from Jurkat T cell lysate captured on the plate by goat anti-VISTA antibody; medium of PMA-treated THP-1 cells applied 2 h; bound galectin-9 measured with an ELISA kit
[4] = molecular target: V-domain Ig-containing suppressor of T cell activation (VISTA), from Jurkat T cells (human (endogenous in Jurkat T cells)) (UniProt Q9H7M9); experiment: co-IP; VISTA from Jurkat T cell lysate captured on a Maxisorp ELISA plate by goat anti-VISTA antibody, blocked with 2% BSA; medium of PMA-treated THP-1 cells applied 2 h at room temperature; washed with TBST; eluted with 0.2 M glycine-HCl pH 2.0; Western blot for galectin-9

| Substance | binding [1] | binding [2] | binding [3] | binding [4] |
| --- | --- | --- | --- | --- |
| human recombinant galectin-9 (from UniProt O00182 1-355) (ligand) | binds | binds |  |  |
| galectin-9 secreted by PMA-treated THP-1 human AML cells (from UniProt O00182 1-355) (ligand) |  |  | binds | binds |
